Measurements reported in PubChem BioAssay AID1159579 (Peter MacCallum Cancer Centre, 2015).
Purpose: 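Follow-up screen seeking modulators of motility in lymphatic endothelial cells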 (follow-up of hits). Cell system: human dermal lymphatic endothelial cells. Reagent: single siRNA against human genes, 25 nM. Read-out: 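Scratch wound imaging measuring area filled by moving cells plus nuclei number, averaged over two wells and scaled to mock-transfected controls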. Scale: migration relative to mock: higher = more migration into the scratch; mean nuclei count: higher = more cells remaining. Call rule: 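Called active when the migration ratio is 0.6 or lower (impaired) or 1.3 or higher (accelerated), but inactive whenever the mean nuclei count falls under 3300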. Meaning of the calls: active = migration changed (impaired or accelerated); inactive = no migration change, or too few cells.
In all, the deposit lists about 2,000 reagents; below is a part drawn at random. 549 of all reagents (27%) count as active. 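Some migration ratios are negative; siRNAs with too few cells are inactive whatever their migration ratio.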 A number with no mark means an inactive call. The numbers tell different reagents against one gene apart. Not stated in the record: the time to read-out.

MARCHF10 (membrane associated ring-CH-type finger 10) #1 showed migration relative to mock 0.96; migration and cell number class no change in migration or cell number; mean nuclei count 7800.
Silencing of MARCHF10 (membrane associated ring-CH-type finger 10) #2 resulted in: migration relative to mock 0.74; migration and cell number class no change in migration or cell number; mean nuclei count 5670.
With knock-down of MARCHF10 (membrane associated ring-CH-type finger 10) #3 the results were migration relative to mock 0.76; migration and cell number class no change in migration or cell number; mean nuclei count 4958.
Against MARCHF10 (membrane associated ring-CH-type finger 10) #4, the entry reads migration relative to mock 1.02; migration and cell number class no change in migration or cell number; mean nuclei count 5570.
With knock-down of GJB6 (gap junction protein beta 6) #1, the record shows migration relative to mock 0.8; migration and cell number class no change in migration or cell number; mean nuclei count 6190.
After knock-down of GJB6 (gap junction protein beta 6) #2, the screen gave migration relative to mock 0.26 (active); migration and cell number class migration reduced; mean nuclei count 5564.
Silencing of GJB6 (gap junction protein beta 6) #3 gave: migration relative to mock 0.97; migration and cell number class no change in migration or cell number; mean nuclei count 6310.
With knock-down of GJB6 (gap junction protein beta 6) #4, the screen gave migration relative to mock 0.72; migration and cell number class no change in migration or cell number; mean nuclei count 4870.
After knock-down of TMEM126A (transmembrane protein 126A) #1, the screen gave migration relative to mock 0.54 (active); migration and cell number class migration reduced; mean nuclei count 5054.
TMEM126A (transmembrane protein 126A) #2 scored migration relative to mock 0.93; migration and cell number class no change in migration or cell number; mean nuclei count 6184.
After knock-down of TMEM126A (transmembrane protein 126A) #3, the screen gave migration relative to mock 0.74; migration and cell number class no change in migration or cell number; mean nuclei count 4200.
Against TMEM126A (transmembrane protein 126A) #4, the values are migration relative to mock 0.9; migration and cell number class no change in migration or cell number; mean nuclei count 6064.
Against EFHC2 (EF-hand domain containing 2) #1, the entry reads migration relative to mock 1.1; migration and cell number class no change in migration or cell number; mean nuclei count 5239.
With knock-down of EFHC2 (EF-hand domain containing 2) #2, the record shows migration relative to mock 0.73; migration and cell number class no change in migration or cell number; mean nuclei count 4976.
With knock-down of EFHC2 (EF-hand domain containing 2) #3, the record shows migration relative to mock 0.54 (active); migration and cell number class migration reduced; mean nuclei count 4132.
With knock-down of EFHC2 (EF-hand domain containing 2) #4, the record shows migration relative to mock 0.95; migration and cell number class no change in migration or cell number; mean nuclei count 5188.
